Source: US20250092156A1
No constants are given. Whether binding was seen depends on the method and setting. Some entries that bind do so weakly or less than the wild type.

By UniProt entry, the sequences of proteins in these tests, tags left out. Where a name states a change or a piece, a line headed by the entry shows the natural chain unless it says otherwise. Chains listed by the source or under a name are the forms on record and can include a tag or linker.
HA-tagged RPTPα P210L/P211L wedge mutant (P18052, form named): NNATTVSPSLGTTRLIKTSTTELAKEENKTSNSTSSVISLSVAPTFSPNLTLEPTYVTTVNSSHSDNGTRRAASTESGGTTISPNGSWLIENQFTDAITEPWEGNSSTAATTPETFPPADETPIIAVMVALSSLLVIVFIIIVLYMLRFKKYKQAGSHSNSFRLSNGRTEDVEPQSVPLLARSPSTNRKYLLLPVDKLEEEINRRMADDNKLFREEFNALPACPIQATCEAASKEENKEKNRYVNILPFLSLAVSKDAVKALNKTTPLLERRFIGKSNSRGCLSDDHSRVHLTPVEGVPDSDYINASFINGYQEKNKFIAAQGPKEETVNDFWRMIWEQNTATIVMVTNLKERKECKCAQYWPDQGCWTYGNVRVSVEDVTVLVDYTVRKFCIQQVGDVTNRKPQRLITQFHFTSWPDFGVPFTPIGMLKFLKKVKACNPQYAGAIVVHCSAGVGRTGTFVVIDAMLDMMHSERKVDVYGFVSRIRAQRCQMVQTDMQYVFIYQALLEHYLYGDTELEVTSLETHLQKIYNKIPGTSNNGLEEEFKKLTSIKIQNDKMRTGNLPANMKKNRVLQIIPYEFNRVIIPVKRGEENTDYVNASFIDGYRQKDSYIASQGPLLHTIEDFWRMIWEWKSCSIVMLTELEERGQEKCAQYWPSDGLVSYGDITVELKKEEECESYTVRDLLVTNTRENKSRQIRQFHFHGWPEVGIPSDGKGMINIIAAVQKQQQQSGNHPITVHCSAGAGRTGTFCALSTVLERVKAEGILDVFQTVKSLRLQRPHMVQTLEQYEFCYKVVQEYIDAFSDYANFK

Columns and labels:
[1] = biological target: FLAG-tagged RPTPα P210L/P211L wedge mutant (mouse) (UniProt P18052); assay: FLIM-FRET, lower than WT-WT
[2] = biological target: FLAG-tagged RPTPα P210L/P211L wedge mutant (mouse) (UniProt P18052); assay: spectral acceptor photobleaching FRET (apFRET), lower than WT-WT
[3] = biological target: FLAG-tagged RPTPα P210L/P211L wedge mutant (mouse) (UniProt P18052); assay: SECFRET / SEpFRET, HA-FLAG FRET, fixed FLS, against WT-WT

Measured: binding

HA-tagged RPTPα P210L/P211L wedge mutant (from UniProt P18052 20-829) (receptor)
binds: all assays above
